According to US20060151574A1, “Formulations useful against hepatitis C virus infections” (priority 2002, published 2006):
For at least one compound, name, drawing or mass did not settle the structure.

System: HCV replicon cell lines
Experiment: HCV replicon cell lines: HCV RNA by Northern Blotting, NS5a by Western Blotting
Format: cell-based, Hepatitis C virus
Conditions: sodium selenite 50 nM added to all trans retinoic acid
Source text: The only reliable experimental animal HCV infection studies have been performed with chimpanzees. So far, there is no simple cell culture infection system available or HCV. Although a number of reports have been published describing in vitro propagation attempts of HCV in primary cells and cell lines, questions remain concerning reproducibility, low levels of expression and properly controlled detection methods (reviewed in J. Gen Virol. 81, 1631; Antiviral Chemistry and Chemotherapy 10, 99). […]
Possible influences and/or dependencies of HCV's RNA-dependent RNA replication and nonstructural proteins on host cell transcription are accessible to analysis with the Clontech cDNA arrays used in the methods described herein. […] Three replicon lines were analyzed for changes in cellular RNA expression patterns compared to the control line: • HuH-9-13: cell line with persistant replicon IRES377/NS3-3′/wt, described in Science 1999, 285, 110-113, • HuH-5-15: cell line with persistant replicon IRES389/NS3-3′/wt, described in Science 1999, 285, 110-113, • HuH-11-7: cell line with persistant replicon IRES377/NS2-3′/wt, described in Science 1999, 285, 110-113.
Moreover, as model system for HCV replication there were utilized three replicon cell lines provided by Prof. […] Levels of expression of GI-GPx was measured on protein level by Western Blotting using antibodies provided by Prof. […]

O=[Se](O)O [sodium selenite]
downregulation of HCV-RNA and -NS5a protein: further downregulation
